Z-score data for 107 sequences are collected here from PubChem BioAssay AID1508600 (Functional Genomics Laboratory (NCATS/FGL), 2020).

Out of some 53,000 sequences screened, about 3,700 (7%) were called active.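 The calls were made as follows: active = gene knockdowns whose robust z-score for IL-1 alpha signal is at least 2 or at most -2, so actives lie on both sides; inactive = the rest.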 Some of the results follow.

This assay in a line: Components of the Cytosolic LPS Sensing Pathway: Gene Identification via Genome-wide siRNA Screen.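 Also: robust z of the log signal after scaling to non-targeting control siRNA wells of the plate.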 As to conditions: RAW264.7 macrophages, IL-1a HTRF, actives lie on both sides, screened at 100 nM (by protocol), cells primed 5 h with Pam3CSK4 first. The essentials:
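IL-1a HTRF of supernatants after 24 hour LipidA transfection of Pam3CSK4-primed (5 hours) RAW264.7 cells, 48h post-siRNA transfection (100 nM). Scores: percent of plate negative-control median, then log-based robust z-score.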
Consider CGUCAAUCACACAGAUAUUTT against Cd28, for which the z-score was inactive: -0.34.
As for GGACCCAUUGGUCAUCAUATT against Tent5b, the figure is inactive: 0.18; as for GGAAGAUGUUUAUUCAAGUTT against Abhd10, inactive: -0.113.
For the sequence GGAAGAGAAAGAGGUCAGATT against Aptx, the z-score is inactive: 0.136.
Then GGAAGUGUAUAAUUUCCUGTT against Aco2, with inactive: 0.684; and GGAACCACACAUGUGUUAATT against Grik2, with inactive: -0.281.
Then GCUAAUAUAGAGUAUCUGUTT against Enox1, with inactive: -0.345; and GGGACUUCGCUAUGCAGUGTT against Tyw1, with inactive: 0.157; and GGAUGAUAAAGACAAAGUATT against Ppm1g, with inactive: -0.921.
Turning to GGGAUGGGAUAGGGACAUATT against Epha10, the z-score was inactive: 0.831.
For CGAACUGUUGAGAGACAAGTT against Trpv4, the z-score is inactive: -0.537.
As for CGAUUAGAGGCACGUCAGUTT against Neurod1, the figure is inactive: -0.561; as for “GCAGUGGAUGUAUUGUAAATT against 0610009B22Rik”, inactive: -0.377.
On to CGGUAUCAUAGCUUAGCACTT against Rab5a, for which the z-score was inactive: 1.31.
Then GGAUGAGGAUUUUGAUUGGTT against Spsb3, with inactive: 0.641; and CCACCAUUUACUGAGUUUATT against Scn2b, with inactive: -0.324; and GGAAGAAAAGACAAAUCUGTT against Cinp, with inactive: 0.741.
Then GGUUGUGCAGGGAAACUUATT against Ap3m2, with inactive: -0.468; and GGUCAGAAAAGUAUGUUGGTT against Naip5, with inactive: 0.208.
As for GGCAGUAGAACAGAUCAGATT against Sf1, the z-score was inactive: -0.0346.
Then GCACUUAGACUAUUCCAGGTT against Tph2, with inactive: -0.118; and GCUAUUGUUAUAGUAUCUGTT against Olfr688, with inactive: -0.413; and GCACAAAUACACCAAUCUCTT against Eif2b5, with inactive: 0.776.
Then CGACAACAUUCGGAGAGGATT against Tspan15, with inactive: 0.193; and CCAUUCAGUCGAUUACAUUTT against Chd9, with inactive: 0.204; and GGUGGAACUGACACAAGAATT against Gk2, with inactive: 0.348.
GCUCUGAUGGAACGCAUGATT against Sesn2: the z-score is inactive: -0.289.
As for GGAGGAAGUUACAGAUGUGTT against Nog, the figure is inactive: -0.588; as for GGAUGACAGUUGAAUCGCCTT against Selenom, inactive: -1.72; as for GGAUUGUUGAAAGAAACAUTT against Mrpl32, inactive: -0.122.
As for CCAUUCUCUUUACCUCAAUTT against Rdh12, the figure is inactive: -0.161; as for GCUGAACAAACCCACCGGUTT against Ppox, inactive: 0.505; as for GGAAUCUUCCACAAGCUGUTT against Papolb, inactive: 0.722.
Then GUCCUUCUCAUCAUGGGACTT against Sec61g, with inactive: -0.248; and CCAAAUCUCUCAAUUUAGGTT against Taf9b, with inactive: 0.265; and GGCUGGAGAAAAUGAUGAATT against Rwdd1, with inactive: -0.267.
Take GGUGUGCCCUAUGAAUCGATT against Itpr2: the z-score is inactive: -0.657.
Then GGAAGAGAUGAAGAAAAUGTT against Cetn1, with inactive: -1.01.
In the case of GGCAAAACCUACAUGGCCCTT against Drd1, the z-score was inactive: 0.566.
Then GCCAGUACUCUGCUUGUGATT against Naif1, with inactive: -1.64; and GCCCUCUUAGGAGUGAUUATT against Zfp219, with inactive: 0.54.
For the sequence GCUGGUAUCAUGAUUUUGGTT against Gm5134, the z-score is inactive: 0.391.
As for GGUUGAAUAUACUUAGCACTT against Gm5082, the figure is inactive: 0.947; as for CCAAGGGUCACCUAUUUUUTT against Kcna5, inactive: 1.97; as for CAAGACUAUUUGGCCUGAGTT against Gbx1, inactive: 1.71.
Turning to GGUGGGAAAGGAAUUUGACTT against Glod5, the z-score was inactive: 0.706.
Then GGAAGAUUAAAGGACAGUATT against Yipf3, with inactive: 0.0998.
Then GGUCUCCCUCUUCCAUAACTT against Klk10, with inactive: -1.7.
For the sequence GGGAGAGUCUUGGCAACUUTT against Btbd17, the z-score is active: -2.12.
As for GGAUUUCUGGGACUCCACUTT against Tnfsf10, the figure is inactive: -1.26; as for GGACAAAUUGUAUGGCGAATT against Hecw2, inactive: -0.402; as for GGAGUUCCUCACACUAAUCTT against Gch1, inactive: 0.172.
As for GGACAACUCCAAUUCCCUATT against Rasgrp2, the figure is inactive: -1.53; as for GCCAAGAUGUGGCAACCCATT against Mmp2, inactive: -1.61; as for GCCAAGAGCAUAUCUUAGUTT against Rcan1, inactive: 1.09.
As for GGAAAUGAGCCAGGAUGGUTT against Cdca4, the figure is inactive: 0.0601.
As for GGUGUUUCCAAUUAGGAAATT against Gjb1, the z-score is inactive: -0.209.
Then GGUAAUGUGCAACACUGUGTT against Zfp13, with inactive: -0.514; and “GAGACACUUGUGCUGUAGGTT against F730035P03Rik”, with inactive: 0.108.
Take GGAGAACUUCUGGAGCACCTT against Clec4n: the z-score is inactive: -0.569.
On to GGUAUCUCCUGUGAACGACTT against Chmp7, for which the z-score was inactive: 0.0471.
Consider GCUUUUCCGACAGGACCUGTT against Rptor, for which the z-score is inactive: -0.404.
On to GGAGAAAAUAGAGACUCAATT against Scg2, for which the z-score was inactive: -0.605.
As to GGUUAGUAGUCUUCUUAUCTT against Olfr1173, the z-score was inactive: 0.291.
Take GGUUCUAUUACAAGAAAGGTT against Enpp6: the z-score was inactive: -0.738.
With GGAAUCUGCACCAUUUUCCTT against Lrrc28, the z-score is inactive: -0.225.
Then CGGCAGGACAAAUCUAGAUTT against Rab44, with inactive: 0.408; and GGCUGUUGAGAUCCCAGAGTT against Abhd11, with inactive: -1.17; and CCUAUAGCUUGGUAACAGGTT against Gnb1l, with inactive: -0.747.
Then GGCAAAAGGGACAAAAACUTT against Gadd45a, with inactive: -1.64.
Then GGACAACUAUGGGACAGAGTT against LOC626846, with inactive: 0.77; and GGGUUUAUGUUGCCGACUCTT against Setd7, with active: 2.04; and GCGCAGAUACCUGUUUGUUTT against Tmem70, with inactive: 1.52.
Consider GGGAACCAGAAUUCACAAATT against Trp53inp2, for which the z-score is inactive: -1.99.
Then GGACUCUCUGAAUAACAACTT against Mapk8ip2, with inactive: -0.0013.
As to GGAUUUUAAACAAAAGACCTT against Stard13, the z-score was inactive: 0.718.
Then GCACUAUGUGGAGAGAUUGTT against Esrrb, with inactive: 1.61; and GGAAUUCAUGAAGACUUGGTT against Calb1, with inactive: 1.2.
As for GGAGGUACCAGCAGAAAGUTT against Bpnt2, the figure is inactive: -0.651; as for GCGUAUUACGAAAGAUGUGTT against Prpf18, inactive: -0.568.
As for GGUUCUUUCCUUGUUUUACTT against Olfr448, the figure is inactive: 0.113; as for “GCUGUGUUAGAAAGCAGGCTT against 4931406H21Rik”, inactive: 0.927; as for “GGACUCCUAAGUGUAACAGTT against 9130221H12Rik”, inactive: 0.68.
Regarding GCUGAGAGACUUGUGAAAUTT against Ndufb11, the z-score is inactive: 1.06.
As for GGAUUAGAAGAACUAAGAGTT against Ppp1r42, the figure is inactive: -0.0726; as for GGCACGCUUAGCCAAAUGUTT against Herc2, inactive: -0.759.
For GCCAGCAUAGCAGAAAAUATT against Usp25, the z-score was inactive: -0.761.
As for GGGAUUUGCUGUGAGAAUUTT against Mpp6, the figure is inactive: -1.72; as for GCUUAAAACCAUGUCUGAUTT against Asap1, inactive: 1.14; as for GGGUUCAGGACAAGUUAAATT against Gpkow, inactive: -0.11.
As for GGCAUCAACUUCGUGCUAATT against Olfr541, the figure is inactive: 1.77; as for GCUCUGUAAACCAUGUAAGTT against Slc14a1, inactive: -0.441; as for GGCGGGAAAUGUCUUUAUCTT against Rpl22, inactive: 0.743.
With GGUGAUAGUCGUUUUCUAGTT against Wee1, the z-score was inactive: -0.785.
As for GGAGAGUGCAAGGAAGAAGTT against Haus8, the figure is inactive: 0.433; as for CCCACAGGGAUUUAUUUAUTT against Slc37a1, inactive: -0.362.
Take GGAGAUUCAGAAAAAGCUGTT against Stmn2: the z-score was inactive: -0.238.
Then GAUCACUGGCAAGCACGAATT against Hspb1, with inactive: -1.58; and GCAGGUUUGAUAUAAAAUCTT against Uba2, with inactive: 0.162.
As to GGCAAAAUCAUGUGGUUGATT against Dlat, the z-score was inactive: -0.6.
Then GGCUAAGAAUGAGACUGGUTT against Abcg4, with inactive: -0.0869.
As for GGCUACAAGUUGGUAAUCUTT against Pnkp, the figure is active: 3.36; as for GGCAGACAGAGGGUAAAAATT against Slc24a1, inactive: -0.956; as for GGCAGGUCUUACGCAAAACTT against Csf1r, inactive: 0.837.
As for GCUGUCAAGCUAUAUGGCGTT against Llgl2, the figure is inactive: 0.348; as for GCCUUGGACAAAAACACUATT against Ryk, inactive: -0.917.
As to GGAACCUUCUCCAAAGCAATT against Rpgrip1, the z-score was active: -2.45.
